Read-outs that look alike come from different tables or passages of the source. These are yes or no findings as the source states them, for the method shown. Binding seen in cells or lysates may run through a third protein. Some binding calls cover weakened binding; strength is not graded here.
Key:
Assay in all cases: proximity ligation
[1] = molecular target: Akt2 (endogenous, mouse primary neurons) (mouse (endogenous in primary neurons)) (UniProt Q60823)
[2] = molecular target: T1, Auts2 (endogenous, mouse primary neurons) (mouse (endogenous in primary neurons))
T1 sequence: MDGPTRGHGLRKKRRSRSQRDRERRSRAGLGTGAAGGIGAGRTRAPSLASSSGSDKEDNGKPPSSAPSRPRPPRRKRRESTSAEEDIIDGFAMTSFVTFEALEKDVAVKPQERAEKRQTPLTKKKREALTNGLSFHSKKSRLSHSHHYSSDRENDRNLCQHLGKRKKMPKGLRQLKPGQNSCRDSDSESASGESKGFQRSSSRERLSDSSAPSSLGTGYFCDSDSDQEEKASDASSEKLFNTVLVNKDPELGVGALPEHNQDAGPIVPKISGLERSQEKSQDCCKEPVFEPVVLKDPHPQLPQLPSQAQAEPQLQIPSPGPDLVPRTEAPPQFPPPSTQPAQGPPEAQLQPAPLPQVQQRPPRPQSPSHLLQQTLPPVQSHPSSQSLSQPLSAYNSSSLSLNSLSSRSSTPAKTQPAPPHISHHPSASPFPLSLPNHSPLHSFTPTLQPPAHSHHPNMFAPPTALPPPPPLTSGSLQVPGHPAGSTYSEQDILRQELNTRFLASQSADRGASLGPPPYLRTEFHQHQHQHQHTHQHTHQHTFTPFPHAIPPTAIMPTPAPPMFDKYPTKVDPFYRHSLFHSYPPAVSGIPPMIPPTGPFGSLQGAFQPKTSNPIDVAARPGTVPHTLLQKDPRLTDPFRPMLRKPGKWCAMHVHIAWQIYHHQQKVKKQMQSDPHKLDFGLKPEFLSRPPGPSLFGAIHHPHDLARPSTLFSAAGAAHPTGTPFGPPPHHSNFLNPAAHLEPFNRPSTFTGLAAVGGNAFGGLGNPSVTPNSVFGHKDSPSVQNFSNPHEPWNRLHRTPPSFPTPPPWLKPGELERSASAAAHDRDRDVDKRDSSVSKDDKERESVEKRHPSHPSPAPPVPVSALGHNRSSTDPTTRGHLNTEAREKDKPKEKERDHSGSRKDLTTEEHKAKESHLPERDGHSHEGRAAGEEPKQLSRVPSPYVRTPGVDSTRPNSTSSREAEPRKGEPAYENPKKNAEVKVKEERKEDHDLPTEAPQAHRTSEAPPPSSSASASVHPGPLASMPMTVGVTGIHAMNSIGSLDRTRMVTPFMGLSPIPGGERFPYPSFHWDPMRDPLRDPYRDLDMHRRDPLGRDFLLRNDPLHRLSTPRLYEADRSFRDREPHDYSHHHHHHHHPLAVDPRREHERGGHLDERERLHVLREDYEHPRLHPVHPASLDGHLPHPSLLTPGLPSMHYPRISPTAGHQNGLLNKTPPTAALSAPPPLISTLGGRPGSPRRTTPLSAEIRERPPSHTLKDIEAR

By UniProt entry, the sequences of proteins in these tests, tags left out.
UniProt Q60823: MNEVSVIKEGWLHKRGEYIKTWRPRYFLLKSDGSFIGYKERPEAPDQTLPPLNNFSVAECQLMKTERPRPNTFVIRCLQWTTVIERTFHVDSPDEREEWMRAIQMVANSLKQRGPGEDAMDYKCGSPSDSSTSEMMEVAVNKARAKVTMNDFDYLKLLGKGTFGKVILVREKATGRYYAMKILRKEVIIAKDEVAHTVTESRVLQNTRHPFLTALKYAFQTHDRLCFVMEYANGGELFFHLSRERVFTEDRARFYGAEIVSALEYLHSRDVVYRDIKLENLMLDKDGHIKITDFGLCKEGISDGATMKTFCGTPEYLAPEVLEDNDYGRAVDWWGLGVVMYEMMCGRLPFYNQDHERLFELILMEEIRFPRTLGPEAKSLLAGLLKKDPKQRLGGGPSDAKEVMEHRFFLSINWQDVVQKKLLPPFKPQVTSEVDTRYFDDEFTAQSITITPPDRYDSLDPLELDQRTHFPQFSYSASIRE
UniProt O88196: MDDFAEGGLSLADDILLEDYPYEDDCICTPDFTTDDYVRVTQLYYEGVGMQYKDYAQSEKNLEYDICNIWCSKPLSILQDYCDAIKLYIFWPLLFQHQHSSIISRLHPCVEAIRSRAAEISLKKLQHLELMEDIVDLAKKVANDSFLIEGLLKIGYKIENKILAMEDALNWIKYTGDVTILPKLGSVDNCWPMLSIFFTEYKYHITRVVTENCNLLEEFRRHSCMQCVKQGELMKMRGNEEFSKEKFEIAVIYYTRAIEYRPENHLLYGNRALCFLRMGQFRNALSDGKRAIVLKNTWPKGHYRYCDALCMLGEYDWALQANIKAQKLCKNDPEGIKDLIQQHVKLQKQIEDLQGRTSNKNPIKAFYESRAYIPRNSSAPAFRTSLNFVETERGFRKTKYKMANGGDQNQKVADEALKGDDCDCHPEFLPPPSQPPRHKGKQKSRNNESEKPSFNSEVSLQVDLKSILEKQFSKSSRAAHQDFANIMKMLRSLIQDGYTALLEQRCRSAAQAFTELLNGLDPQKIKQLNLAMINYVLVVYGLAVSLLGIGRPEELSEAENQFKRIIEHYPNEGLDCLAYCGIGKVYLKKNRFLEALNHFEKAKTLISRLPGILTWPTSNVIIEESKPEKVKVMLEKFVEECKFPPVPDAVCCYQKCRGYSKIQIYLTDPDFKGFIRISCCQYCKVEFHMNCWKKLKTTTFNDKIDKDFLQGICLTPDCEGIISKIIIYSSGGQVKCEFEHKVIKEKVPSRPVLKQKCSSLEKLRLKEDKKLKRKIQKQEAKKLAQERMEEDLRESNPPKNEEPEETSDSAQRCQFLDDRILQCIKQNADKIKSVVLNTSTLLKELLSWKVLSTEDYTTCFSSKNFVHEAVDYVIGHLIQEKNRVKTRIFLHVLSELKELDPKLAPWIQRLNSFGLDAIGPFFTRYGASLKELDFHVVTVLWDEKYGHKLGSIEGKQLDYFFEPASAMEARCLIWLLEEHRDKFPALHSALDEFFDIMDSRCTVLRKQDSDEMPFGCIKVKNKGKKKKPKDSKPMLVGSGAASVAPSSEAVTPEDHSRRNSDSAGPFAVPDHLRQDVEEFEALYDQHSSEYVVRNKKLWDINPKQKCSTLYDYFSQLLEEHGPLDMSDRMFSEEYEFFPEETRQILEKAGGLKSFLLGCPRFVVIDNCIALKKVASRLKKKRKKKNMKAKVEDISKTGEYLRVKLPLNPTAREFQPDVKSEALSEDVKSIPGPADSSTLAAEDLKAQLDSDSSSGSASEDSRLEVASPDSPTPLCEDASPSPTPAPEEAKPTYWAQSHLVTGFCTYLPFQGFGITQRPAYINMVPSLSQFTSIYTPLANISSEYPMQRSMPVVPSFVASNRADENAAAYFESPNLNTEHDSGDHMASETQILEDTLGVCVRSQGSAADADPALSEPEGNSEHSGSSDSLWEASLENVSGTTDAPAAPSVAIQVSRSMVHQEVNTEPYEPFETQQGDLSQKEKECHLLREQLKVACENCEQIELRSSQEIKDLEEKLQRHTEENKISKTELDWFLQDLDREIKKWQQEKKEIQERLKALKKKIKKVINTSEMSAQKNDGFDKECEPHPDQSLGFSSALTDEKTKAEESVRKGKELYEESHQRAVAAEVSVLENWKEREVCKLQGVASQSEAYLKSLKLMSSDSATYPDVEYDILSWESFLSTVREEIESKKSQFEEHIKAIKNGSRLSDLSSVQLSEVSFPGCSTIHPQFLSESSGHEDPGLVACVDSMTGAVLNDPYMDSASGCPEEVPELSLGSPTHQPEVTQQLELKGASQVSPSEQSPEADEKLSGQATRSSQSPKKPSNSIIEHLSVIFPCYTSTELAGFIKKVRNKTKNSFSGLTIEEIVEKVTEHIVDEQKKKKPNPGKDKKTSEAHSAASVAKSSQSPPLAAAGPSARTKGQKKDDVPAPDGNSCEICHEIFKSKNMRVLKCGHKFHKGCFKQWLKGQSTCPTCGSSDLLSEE

[3] = molecular target: T1, Auts2 (endogenous, mouse primary neurons) (mouse (endogenous in primary neurons)); remark: listed apart in the source

Measured: binding

Ttc3 (endogenous, mouse primary neurons) (from UniProt O88196 1-1979)
binds: all assays above
